From ChEMBL document CHEMBL3988442, “University of Dundee, Small-Polar-MMV Screening Library” (2021).

Mtb glucose medium: 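Growth of Mycobacterium tuberculosis over 3 days (7H9 medium with glucose and tyloxapol); the read-out is not stated. Tested at 50 µM. Higher reads as more growth inhibition (inferred: compounds with an IC50 in retests scored well above the rest). Of about 69,000 compounds tested this way, about 760 (1.1%) reached 50% or more in at least one test.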
Mtb cholesterol medium: 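Growth of Mycobacterium tuberculosis over 4 days (cholesterol / DPPC medium with tyloxapol); the read-out is not stated. Concentration: 50 µM. The record gives no direction; compounds that gave an IC50 in retests scored well above the rest, so higher reads as more growth inhibition. Of about 69,000 compounds tested this way, about 370 (0.54%) reached 50% or more in at least one test.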

Results are given as percent effect.
The record does not define 0% and 100%; most values in the screen are far below 50% and negative numbers occur (in some assays of this library far below -100).
Compounds were drawn at random from those tested, without regard to their results.
Two or more numbers in one place are separate tests of the same structure; such repeats can differ widely.

| # | structure | Mtb glucose medium | Mtb cholesterol medium |
|---|---|---|---|
| 1 | `Cn1ncc2c1NC(=O)CC2c1ccccc1Cl` (stereo unspecified) | 15.42% & 2.043% | 3.414% |
| 2 | `Cc1ccc(-c2nc(CN3CCc4c(ncn4C)C3)cs2)o1` | -9.642% | 6.971% |
| 3 | `N#Cc1c(SCCN2CCOCC2)sc2c(O)cc(O)nc12` | -6.405% | -20.72% |
| 4 | `Cc1oc2c(c1C(=O)N1CC[C@H](O)[C@]3(CCCO3)C1)CCCC2` | -16.72% | -2.179% & 0.1341% |
| 5 | `CCn1cnnc1CNC(=O)c1cc(F)ccc1OC` | 5.871% | -19.79% |
| 6 | `[H][C@]12CC[C@]([H])(CN(C3CCOCC3)C1)N(Cc1ccc(N(C)C)nc1)C2` | 2.704% | 3.387% |
| 7 | `CC(=O)N(C)c1nc(CN2CCCC2c2cnn(C)c2)cs1` (stereo unspecified) | -4.307% | 10.65% |
| 8 | `CCOc1cc(=O)n2c(c1C(=O)OCc1ccc(OC)cc1)CCCC2` | -28.02% | -19.72% |
| 9 | `CC(C)(C)NCc1nn(Cc2ccccc2)nc1-c1ccccc1` | 23.09% | 13.67% |
| 10 | `CC(=O)Nc1nccn1Cc1ccccc1Cl` | -15.44% | -2.961% |
| 11 | `O=C(CCN1C(=O)CCC1=O)Nc1ccc(OCC(F)(F)F)nc1` | 5.259% | 8.495% |
| 12 | `COc1ccc(C2C3=C(COC3=O)Nc3[nH]nc(C)c32)cc1OC` (stereo unspecified) | -13.65% | -7.644% |
| 13 | `O=C1Nc2ccccc2CC12CCCN2Cc1ccc(F)cc1` (stereo unspecified) | -3.162% | -14.9% |
| 14 | `Fc1ccc([C@@H]2COC[C@H]2NCc2cccc(F)c2)cc1.O=C(O)CC(O)(CC(=O)O)C(=O)O` | 3.941% | -11.15% |
| 15 | `CSCC(=O)N(Cc1ccccn1)Cc1ccccc1C` | 27.11% | 18.06% |
| 16 | `CN1CCC/C1=N\S(=O)(=O)c1ccc(NC(=O)c2ccc(Cl)s2)cc1` | 5.89% | -5.378% |
| 17 | `O=C(O)C(F)(F)F.O=C1CCCN1Cc1nnc2n1CCN(Cc1ccccn1)CC2` | -13.34% | -13.82% |
| 18 | `[H][C@]12CNC[C@@]1(C(=O)N1CCN(c3ncccc3C#N)CC1)CN(C)C2` | -29.8% | -15.59% |
| 19 | `O=C(O)C(F)(F)F.c1cnc(N2CCC3(CN(CC4CCOC4)C3)C2)nc1` (stereo unspecified) | -23.87% | -13.26% |
| 20 | `Cc1cc(C)c(CNC(=O)C2COc3ccccc3C2)c(=O)[nH]1` (stereo unspecified) | -5.412% | 2.798% |
| 21 | `CC(C)N1CCOCC2(CN(Cc3ccccn3)CCO2)C1.O=C(O)C(F)(F)F.O=C(O)C(F)(F)F.O=C(O)C(F)(F)F` (stereo unspecified) | 11.25% | -9.453% |
| 22 | `O=C1CC(c2ccncc2)c2c(c(C(=O)O)cn2-c2ccc(F)cc2)N1` (stereo unspecified) | 13.38% | 12.54% |
| 23 | `CC(C)(C)NC(=O)N1CCC(Oc2ccc(C(F)(F)F)cn2)CC1` | 0.8369% | 16.36% |
| 24 | `Cc1ccnc(NC(=O)C2CCCO2)c1` (stereo unspecified) | -10.58% | -7.909% & -19.89% |
| 25 | `Cc1cc(C[C@@H]2CCC[C@H]2NCc2ccccc2C(F)(F)F)on1.O=C(O)CC(O)(CC(=O)O)C(=O)O` | 3.52% | -14.44% |
| 26 | `[H][C@@]12CS(=O)(=O)C[C@]1([H])N(C(=O)c1cnccc1C)CCN2CCC` | -14.6% | -8.389% |
| 27 | `Cn1nc(C2CCCNC2)c2c(C(=O)NC3CC3)cc(C3CC3)nc21` (stereo unspecified) | 18.06% | 17.33% |
| 28 | `CC(C)N1CCC2(CC1)CC(NS(C)(=O)=O)c1ccccc1O2.O=C(O)C(F)(F)F` (stereo unspecified) | -29.85% | -6.586% |
| 29 | `Cc1cccc(CNCC2COC3(CCCCC3)O2)c1C` (stereo unspecified) | -27.45% | -19.51% |
| 30 | `[H][C@@]12CS(=O)(=O)C[C@]1([H])N(Cc1ccc(F)c(C)c1)CCN2C(=O)C1CCC1` | -1.874% & -23.4% | -23.09% |
| 31 | `CC(=O)Nc1nc(C(=O)N2CCCC2c2ccc(Br)cc2)cs1` (stereo unspecified) | 17.76% | -3.904% |
| 32 | `Brc1cc2c(cc1CN1CCC(N3CCCCC3)CC1)OCCO2` | 35.44% & 31.83% | 2.419% |
| 33 | `O=C(c1cncc(N2CCC(O)(CO)CC2)n1)N1CCCC1` | 20.84% | 9.655% |
| 34 | `O=C(CN1CCC(c2ccnn2CCO)CC1)NC1CCCC1` | -43.49% | -11.82% |
| 35 | `CC(C)C(NC(N)=O)C(=O)N1CCN(c2ccccc2Cl)C(=O)C1` (stereo unspecified) | -36.84% | -8.264% |
| 36 | `O=C(Cc1cn2ccsc2n1)N1CCCC(n2cncn2)C1` (stereo unspecified) | -17.54% | -25.67% |
| 37 | `Fc1ccc(OCc2noc(CN3CCc4cncnc4C3)n2)cc1` | 16.66% | -0.9982% |
| 38 | `CC(NCCN1CCN(C(=O)C2CCCC2)CC1)c1nccs1` (stereo unspecified) | 0.3485% & 11.81% | 17.89% |
| 39 | `O=C(Nc1ccccc1OC(F)(F)F)C1CCS(=O)(=O)C1` (stereo unspecified) | 1.893% & 30.55% | -12.32% |
| 40 | `CCN(CC)CC(=O)N1CCCCC1c1nc(C)cs1` (stereo unspecified) | -24.77% | -26.67% |
| 41 | `CN(C)C(=O)N1CC2(CCNCC2)c2cc(Cl)ccc21.Cl` | 4.358% | -3.452% |
| 42 | `Cc1cc(C)c(CNC(=O)NCC(O)c2ccc(Cl)cc2)c(=O)[nH]1` (stereo unspecified) | 25.7% | -0.7496% |
| 43 | `Cc1ccc(Cn2ccc(NS(C)(=O)=O)n2)cc1` | 1.642% | -11.55% |
| 44 | `[H][C@@]12CCC(=O)N(CCc3c[nH]cn3)[C@]1([H])CCN(Cc1cnn(C)c1)C2` | 16.81% | 1.136% |

6 of the entries, repeated:

structure,Mtb glucose medium,Mtb cholesterol medium
[H][C@@]12CS(=O)(=O)C[C@]1([H])N(C(=O)c1cnccc1C)CCN2CCC,-14.6%,-8.389%
Cc1cc(C)c(CNC(=O)C2COc3ccccc3C2)c(=O)[nH]1 (stereo unspecified),-5.412%,2.798%
CN1CCC/C1=N\S(=O)(=O)c1ccc(NC(=O)c2ccc(Cl)s2)cc1,5.89%,-5.378%
Cc1cc(C[C@@H]2CCC[C@H]2NCc2ccccc2C(F)(F)F)on1.O=C(O)CC(O)(CC(=O)O)C(=O)O,3.52%,-14.44%
CC(C)(C)NC(=O)N1CCC(Oc2ccc(C(F)(F)F)cn2)CC1,0.8369%,16.36%
CC(NCCN1CCN(C(=O)C2CCCC2)CC1)c1nccs1 (stereo unspecified),0.3485% & 11.81%,17.89%